The values that follow come from PMC6718656.

The chains behind the UniProt entries cited, without tags or fusion partners. Where a name states a change or a piece, a line headed by the entry shows the natural chain unless it says otherwise. Residues count along the entry.
UniProt P19320, residues 25-698: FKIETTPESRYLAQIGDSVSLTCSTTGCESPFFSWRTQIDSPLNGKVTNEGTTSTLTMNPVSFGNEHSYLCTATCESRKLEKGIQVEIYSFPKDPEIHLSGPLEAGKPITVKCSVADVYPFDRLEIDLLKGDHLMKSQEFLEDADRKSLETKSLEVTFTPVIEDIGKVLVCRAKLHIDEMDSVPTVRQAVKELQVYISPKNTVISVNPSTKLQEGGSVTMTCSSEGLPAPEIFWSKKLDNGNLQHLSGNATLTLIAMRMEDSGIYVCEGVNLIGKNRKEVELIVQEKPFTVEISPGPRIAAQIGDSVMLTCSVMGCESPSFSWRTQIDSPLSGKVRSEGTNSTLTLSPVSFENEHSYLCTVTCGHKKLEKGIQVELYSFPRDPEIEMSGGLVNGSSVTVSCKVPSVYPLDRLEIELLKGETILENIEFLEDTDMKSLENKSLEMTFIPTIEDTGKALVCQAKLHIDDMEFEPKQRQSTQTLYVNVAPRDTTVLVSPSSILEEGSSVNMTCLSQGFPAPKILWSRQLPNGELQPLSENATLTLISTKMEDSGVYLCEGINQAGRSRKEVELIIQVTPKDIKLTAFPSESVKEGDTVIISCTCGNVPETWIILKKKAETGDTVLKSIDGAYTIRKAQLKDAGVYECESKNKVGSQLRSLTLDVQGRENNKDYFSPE
UniProt P25311, residues 21-298: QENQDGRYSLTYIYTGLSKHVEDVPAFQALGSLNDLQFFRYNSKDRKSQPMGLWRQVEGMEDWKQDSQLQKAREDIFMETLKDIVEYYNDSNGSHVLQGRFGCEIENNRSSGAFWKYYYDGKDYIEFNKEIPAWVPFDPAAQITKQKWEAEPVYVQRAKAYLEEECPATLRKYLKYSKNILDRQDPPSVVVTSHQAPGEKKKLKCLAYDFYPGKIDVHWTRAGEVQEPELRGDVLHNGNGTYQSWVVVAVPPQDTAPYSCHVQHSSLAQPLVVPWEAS
UniProt Q86YZ3: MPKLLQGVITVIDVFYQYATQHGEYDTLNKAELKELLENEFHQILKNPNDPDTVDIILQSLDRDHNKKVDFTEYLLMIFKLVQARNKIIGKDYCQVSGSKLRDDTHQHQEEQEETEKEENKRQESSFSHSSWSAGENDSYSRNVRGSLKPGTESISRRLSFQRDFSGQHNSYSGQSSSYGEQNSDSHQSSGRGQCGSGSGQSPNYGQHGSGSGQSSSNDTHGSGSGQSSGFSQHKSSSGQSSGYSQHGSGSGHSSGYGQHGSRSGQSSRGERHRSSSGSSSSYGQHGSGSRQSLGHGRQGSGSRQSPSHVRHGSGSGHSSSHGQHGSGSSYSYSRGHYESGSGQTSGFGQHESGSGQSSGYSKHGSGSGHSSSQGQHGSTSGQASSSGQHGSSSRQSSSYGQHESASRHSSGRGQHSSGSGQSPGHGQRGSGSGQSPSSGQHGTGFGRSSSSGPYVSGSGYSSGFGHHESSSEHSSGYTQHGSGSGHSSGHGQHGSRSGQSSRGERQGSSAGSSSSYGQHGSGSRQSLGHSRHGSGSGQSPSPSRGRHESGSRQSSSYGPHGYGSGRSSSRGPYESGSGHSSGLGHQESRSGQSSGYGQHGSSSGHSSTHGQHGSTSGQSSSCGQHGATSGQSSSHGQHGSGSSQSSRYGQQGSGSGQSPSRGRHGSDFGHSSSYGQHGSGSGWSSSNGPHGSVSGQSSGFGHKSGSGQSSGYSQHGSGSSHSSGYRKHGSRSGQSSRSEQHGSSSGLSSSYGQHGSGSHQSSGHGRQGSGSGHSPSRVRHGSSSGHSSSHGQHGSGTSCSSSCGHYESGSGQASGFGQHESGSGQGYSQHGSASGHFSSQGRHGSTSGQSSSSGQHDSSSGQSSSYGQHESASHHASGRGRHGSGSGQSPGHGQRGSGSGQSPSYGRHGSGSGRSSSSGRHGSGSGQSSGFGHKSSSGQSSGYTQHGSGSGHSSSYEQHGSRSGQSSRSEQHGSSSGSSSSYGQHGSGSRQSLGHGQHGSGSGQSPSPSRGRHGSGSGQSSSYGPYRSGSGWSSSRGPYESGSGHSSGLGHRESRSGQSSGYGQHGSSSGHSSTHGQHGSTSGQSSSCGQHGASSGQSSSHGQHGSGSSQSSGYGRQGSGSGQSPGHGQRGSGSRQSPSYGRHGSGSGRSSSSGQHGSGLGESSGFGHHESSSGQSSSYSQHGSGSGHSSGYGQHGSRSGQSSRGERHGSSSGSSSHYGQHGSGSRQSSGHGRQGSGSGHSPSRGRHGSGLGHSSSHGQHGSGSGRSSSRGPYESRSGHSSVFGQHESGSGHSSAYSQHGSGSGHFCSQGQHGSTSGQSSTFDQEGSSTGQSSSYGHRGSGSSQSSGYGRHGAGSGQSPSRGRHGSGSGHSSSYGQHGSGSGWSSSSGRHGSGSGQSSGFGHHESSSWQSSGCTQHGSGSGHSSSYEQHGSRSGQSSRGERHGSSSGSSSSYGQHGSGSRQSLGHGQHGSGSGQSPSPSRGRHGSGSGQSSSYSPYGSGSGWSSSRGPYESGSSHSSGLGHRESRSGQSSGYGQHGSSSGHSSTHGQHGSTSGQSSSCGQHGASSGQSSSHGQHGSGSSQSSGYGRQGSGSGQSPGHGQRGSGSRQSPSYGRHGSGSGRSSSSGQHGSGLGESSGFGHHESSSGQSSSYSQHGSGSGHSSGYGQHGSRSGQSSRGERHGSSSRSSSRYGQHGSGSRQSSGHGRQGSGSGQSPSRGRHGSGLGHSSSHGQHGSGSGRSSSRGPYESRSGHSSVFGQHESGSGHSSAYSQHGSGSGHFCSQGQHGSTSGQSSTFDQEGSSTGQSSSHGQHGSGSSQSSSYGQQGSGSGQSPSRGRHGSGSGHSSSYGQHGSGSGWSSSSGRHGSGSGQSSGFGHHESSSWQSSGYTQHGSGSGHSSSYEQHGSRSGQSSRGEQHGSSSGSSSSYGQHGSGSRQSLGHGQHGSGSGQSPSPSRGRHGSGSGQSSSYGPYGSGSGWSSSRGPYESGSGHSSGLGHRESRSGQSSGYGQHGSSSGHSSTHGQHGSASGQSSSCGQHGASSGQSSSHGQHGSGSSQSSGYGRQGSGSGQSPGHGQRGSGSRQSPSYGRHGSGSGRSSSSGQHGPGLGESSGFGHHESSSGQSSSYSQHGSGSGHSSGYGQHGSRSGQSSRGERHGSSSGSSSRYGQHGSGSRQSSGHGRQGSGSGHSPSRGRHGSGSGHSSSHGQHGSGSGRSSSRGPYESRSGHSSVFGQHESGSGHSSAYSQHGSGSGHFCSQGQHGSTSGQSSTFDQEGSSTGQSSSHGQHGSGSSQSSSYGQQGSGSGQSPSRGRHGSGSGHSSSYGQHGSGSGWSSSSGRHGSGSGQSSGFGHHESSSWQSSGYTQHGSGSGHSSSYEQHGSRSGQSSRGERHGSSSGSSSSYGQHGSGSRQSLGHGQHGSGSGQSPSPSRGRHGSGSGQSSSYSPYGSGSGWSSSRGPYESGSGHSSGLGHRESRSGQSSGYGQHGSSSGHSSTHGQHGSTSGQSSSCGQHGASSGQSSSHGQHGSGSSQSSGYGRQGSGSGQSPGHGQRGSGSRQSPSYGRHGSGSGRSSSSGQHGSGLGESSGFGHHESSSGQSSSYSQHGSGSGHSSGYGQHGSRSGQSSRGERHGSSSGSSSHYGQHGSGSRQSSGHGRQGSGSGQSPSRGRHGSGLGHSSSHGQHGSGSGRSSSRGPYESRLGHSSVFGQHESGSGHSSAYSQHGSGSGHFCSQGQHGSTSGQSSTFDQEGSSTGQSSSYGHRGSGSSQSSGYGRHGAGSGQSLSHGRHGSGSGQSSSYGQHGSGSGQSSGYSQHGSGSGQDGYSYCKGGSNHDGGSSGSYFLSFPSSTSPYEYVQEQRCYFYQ
UniProt P02647: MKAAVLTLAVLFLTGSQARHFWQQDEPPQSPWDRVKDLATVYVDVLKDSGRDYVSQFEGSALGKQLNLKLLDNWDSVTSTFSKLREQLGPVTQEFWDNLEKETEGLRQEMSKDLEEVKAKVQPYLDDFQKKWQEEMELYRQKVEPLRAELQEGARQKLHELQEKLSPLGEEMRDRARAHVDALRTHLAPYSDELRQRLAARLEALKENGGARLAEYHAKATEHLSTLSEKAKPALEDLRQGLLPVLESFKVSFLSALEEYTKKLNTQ

Read-outs that look alike come from different tables or passages of the source. Results are given in words; binding and its absence hold for the method and conditions named. In cells and extracts the contact can be indirect. Here binding means that the protein was enriched with, or labelled near, the bait; the list need not be complete.

Holding throughout (experiment): affinity purification with mass spectrometry; VCAM or LRG covalently immobilised on the chip of a four-channel spectroscopic SPR biosensor; plasma of MDS patients flowed over; captured proteins removed with 10 mM sodium hydroxide, digested with trypsin and identified by LC-MS/MS (at least two unique peptides); only the target purified
On the technique in general: Surface plasmon resonance follows binding to a sensor surface in real time, without labels.

For test [1], the target named is Recombinant Human Vascular Cell Adhesion Protein 1 (human) (UniProt P19320).
Test [2] addresses T1, Recombinant Human Leucine-rich alpha-2-glycoprotein (human) (UniProt P02750).
T1 sequence: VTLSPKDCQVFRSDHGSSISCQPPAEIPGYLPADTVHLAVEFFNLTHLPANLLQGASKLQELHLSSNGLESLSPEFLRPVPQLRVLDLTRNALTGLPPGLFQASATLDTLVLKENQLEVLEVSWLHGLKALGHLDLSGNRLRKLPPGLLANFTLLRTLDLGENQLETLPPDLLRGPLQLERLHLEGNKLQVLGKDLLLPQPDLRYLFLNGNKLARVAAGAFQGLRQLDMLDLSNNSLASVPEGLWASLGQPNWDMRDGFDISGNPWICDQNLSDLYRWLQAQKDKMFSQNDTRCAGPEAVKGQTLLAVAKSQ

The target in test [3] is T1, Recombinant Human Leucine-rich alpha-2-glycoprotein (human). This is another data set of the same source.
For test [4], the target named is Recombinant Human Vascular Cell Adhesion Protein 1 (human) (UniProt P19320). The source holds these as a separate data set.

Turning to “Zinc-alpha-2-glycoprotein (from UniProt P25311 21-298)”, the binding entry in test [1] and in test [2] was “binds” in each case.

Consider Hornerin (from UniProt Q86YZ3 1-2850), for which the binding result in test [1] and in test [2] was “binds” in each case.

On to “Apolipoprotein A-I (from UniProt P02647)”, for which the binding result in test [1] is recorded as “binds”.

B1: Gamma-glutamylcyclotransferase (enzyme, UniProt O75223 1-188)
chain: MANSGCKDVTGPDEESFLYFAYGSNLLTERIHLRNPSAAFFCVARLQDFKLDFGNSQGKTSQTWHGGIATIFQSPGDEVWGVVWKMNKSNLNSLDEQEGVKSGMYVVIEVKVATQEGKEITCRSYLMTNYESAPPSPQYKKIICMGAKENGLPLEYQEKLKAIEPNDYTGKVSEEIEDIIKKGETQTL
For the molecule B1, the binding result in test [3] is “binds”.

B2: Protein S100-A8 (protein, UniProt P05109 1-93)
chain: MLTELEKALNSIIDVYHKYSLIKGNFHAVYRDDLKKLLETECPQYIRKKGADVWFKELDINTDGAVNFQEFLILVIKMGVAAHKKSHEESHKE
Consider B2, for which the binding entry in test [3] is given as “binds”.

B3: Serum amyloid A-1 protein (protein, UniProt P0DJI8 19-122)
chain: RSFFSFLGEAFDGARDMWRAYSDMREANYIGSDKYFHARGNYDAAKRGPGGAWAAEVITDARENIQRFFGHGAEDSLADQAANEWGRSGKDPNHFRPAGLPEKY
Take B3: the binding entry in test [4] is on record as “binds”.

B4: Apolipoprotein C-II (protein, UniProt P02655 23-101)
chain: TQQPQQDEMPSPTFLTQVKESLSSYWESAKTAAQNLYEKTYLPAVDEKLRDLYSKSTAAMSTYTGIFTDQVLSVLKGEE
In the case of B4, in test [4], the binding result was “binds”.
